Measurements: PMC3223157
No constants are given. Whether binding was seen depends on the method and setting. In cells and extracts the contact can be indirect. Some results given as binding are weak or reduced against the parent protein; the word gives no strength.

The chains behind the UniProt entries cited, without tags or fusion partners.
UniProt Q9JHK1: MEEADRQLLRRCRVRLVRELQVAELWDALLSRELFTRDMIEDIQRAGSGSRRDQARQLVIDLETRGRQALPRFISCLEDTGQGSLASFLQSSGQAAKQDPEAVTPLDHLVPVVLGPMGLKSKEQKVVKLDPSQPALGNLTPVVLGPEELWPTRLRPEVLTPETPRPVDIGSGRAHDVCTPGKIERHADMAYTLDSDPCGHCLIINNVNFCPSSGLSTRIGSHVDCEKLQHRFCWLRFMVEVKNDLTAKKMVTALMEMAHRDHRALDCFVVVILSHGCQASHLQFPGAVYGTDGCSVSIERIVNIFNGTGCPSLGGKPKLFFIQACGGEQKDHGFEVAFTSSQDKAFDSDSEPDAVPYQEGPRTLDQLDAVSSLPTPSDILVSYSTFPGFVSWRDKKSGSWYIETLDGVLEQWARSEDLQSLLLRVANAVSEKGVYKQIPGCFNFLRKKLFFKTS

Tests used:
[1] = target: T1, caspase 8 (rat lung) (rat (endogenous in Sprague-Dawley rat lung)) (UniProt Q9JHX4); test: co-IP; 250 ug cytosolic extract of lungs of septic rats 48 h after 2CLP (treated with PBS, AdGFP or AdHSP); rabbit polyclonal anti-Apaf-1, anti-caspase 8 or anti-caspase 9, overnight at 4 C, protein A/G beads, three washes with lysis buffer; immunoblot
T1 sequence: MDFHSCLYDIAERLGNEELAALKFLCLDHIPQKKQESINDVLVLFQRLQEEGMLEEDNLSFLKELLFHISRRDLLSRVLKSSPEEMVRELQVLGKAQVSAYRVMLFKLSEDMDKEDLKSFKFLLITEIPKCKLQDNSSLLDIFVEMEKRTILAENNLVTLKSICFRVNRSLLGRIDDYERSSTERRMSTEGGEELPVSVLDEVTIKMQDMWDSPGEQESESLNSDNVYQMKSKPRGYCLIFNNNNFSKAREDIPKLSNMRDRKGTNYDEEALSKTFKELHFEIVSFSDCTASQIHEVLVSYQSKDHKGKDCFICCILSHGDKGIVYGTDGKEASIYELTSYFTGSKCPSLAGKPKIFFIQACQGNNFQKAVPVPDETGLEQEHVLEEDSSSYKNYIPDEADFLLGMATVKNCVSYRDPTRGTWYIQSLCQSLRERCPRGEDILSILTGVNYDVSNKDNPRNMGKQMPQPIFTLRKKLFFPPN

[2] = target: T2, Apaf-1 (rat lung) (rat (endogenous in Sprague-Dawley rat lung)) (UniProt Q9EPV5); test: co-IP; 250 ug cytosolic extract of lungs of non-septic, untreated rats (T0); rabbit polyclonal anti-Apaf-1, protein A/G beads; immunoblot for pro-caspase 9
T2 sequence: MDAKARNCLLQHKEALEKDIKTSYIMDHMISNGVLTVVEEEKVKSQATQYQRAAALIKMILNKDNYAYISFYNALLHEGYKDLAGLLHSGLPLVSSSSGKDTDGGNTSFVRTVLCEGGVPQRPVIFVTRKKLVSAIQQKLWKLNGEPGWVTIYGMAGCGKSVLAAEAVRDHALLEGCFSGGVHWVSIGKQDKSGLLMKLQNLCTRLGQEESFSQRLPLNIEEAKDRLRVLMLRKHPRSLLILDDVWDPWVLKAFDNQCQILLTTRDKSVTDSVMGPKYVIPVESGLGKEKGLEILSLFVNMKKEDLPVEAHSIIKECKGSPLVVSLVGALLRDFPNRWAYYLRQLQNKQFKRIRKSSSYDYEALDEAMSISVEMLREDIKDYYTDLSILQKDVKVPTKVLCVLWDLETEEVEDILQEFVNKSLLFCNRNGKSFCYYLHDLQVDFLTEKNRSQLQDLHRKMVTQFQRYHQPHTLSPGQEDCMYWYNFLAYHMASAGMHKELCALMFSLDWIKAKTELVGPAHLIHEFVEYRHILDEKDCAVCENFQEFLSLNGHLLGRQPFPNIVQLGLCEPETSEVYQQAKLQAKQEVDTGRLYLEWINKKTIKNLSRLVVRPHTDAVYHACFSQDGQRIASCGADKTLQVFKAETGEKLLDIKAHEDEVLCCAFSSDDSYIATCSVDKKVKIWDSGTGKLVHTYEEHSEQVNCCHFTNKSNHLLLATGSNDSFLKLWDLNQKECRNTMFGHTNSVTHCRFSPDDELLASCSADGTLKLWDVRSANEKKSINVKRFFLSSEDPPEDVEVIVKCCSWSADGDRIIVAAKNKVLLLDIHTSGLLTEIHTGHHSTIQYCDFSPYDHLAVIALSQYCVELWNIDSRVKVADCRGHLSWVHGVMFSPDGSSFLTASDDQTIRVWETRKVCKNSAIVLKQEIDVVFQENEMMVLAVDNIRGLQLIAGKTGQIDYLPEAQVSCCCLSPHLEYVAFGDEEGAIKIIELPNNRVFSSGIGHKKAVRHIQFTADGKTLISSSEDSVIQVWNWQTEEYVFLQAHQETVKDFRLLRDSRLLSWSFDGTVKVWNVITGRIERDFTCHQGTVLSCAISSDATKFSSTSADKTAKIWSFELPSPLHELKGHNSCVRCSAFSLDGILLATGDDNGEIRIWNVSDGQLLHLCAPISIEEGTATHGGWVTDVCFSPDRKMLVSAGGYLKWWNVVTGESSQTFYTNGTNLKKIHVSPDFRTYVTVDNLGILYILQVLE

[3] = target: T2, Apaf-1 (rat lung) (rat (endogenous in Sprague-Dawley rat lung)); test: co-IP; 250 ug cytosolic extract of lungs of septic rats 48 h after 2CLP (treated with PBS, AdGFP or AdHSP); rabbit polyclonal anti-Apaf-1, anti-caspase 8 or anti-caspase 9, overnight at 4 C, protein A/G beads, three washes with lysis buffer; immunoblot
[4] = target: T1, caspase 8 (rat lung) (rat (endogenous in Sprague-Dawley rat lung)); test: SEC + co-IP; cytosolic extracts of lungs of septic rats (2CLPPBS, 2CLPAdHSP) fractionated by molecular weight on Sephacryl S300 (20 mM Tris pH 8.0, 0.1 M NaCl, 0.02% NaN3) and precipitated with an antibody to caspase-9; immunoblot for caspase 9, caspase 8, pro-caspase 3, Hsp70 and Apaf-1
[5] = target: caspase 9 (rat lung) (rat (endogenous in Sprague-Dawley rat lung)) (UniProt Q9JHK1); test: as above
[6] = target: caspase 9 (rat lung) (rat (endogenous in Sprague-Dawley rat lung)) (UniProt Q9JHK1); test: co-IP; 250 ug cytosolic extract of lungs of septic rats 48 h after 2CLP (treated with PBS, AdGFP or AdHSP); rabbit polyclonal anti-Apaf-1, anti-caspase 8 or anti-caspase 9, overnight at 4 C, protein A/G beads, three washes with lysis buffer; immunoblot

## caspase 9 (rat lung) (from UniProt Q9JHK1 1-454) (enzyme)
[1]
  binding: binds

## pro-caspase 9 (rat lung) (from UniProt Q9JHK1 1-454) (enzyme)
[2]
  binding: no binding (condition: non-septic, untreated animals (T0))
[3]
  binding: binds

B1: pro-caspase 3 (rat lung) (enzyme, UniProt P55213 1-277)
chain: MDNNETSVDSKSINNFETKTIHGSKSMDSGIYLDSSYKMDYPEMGLCIIINNKNFHKSTGMSARNGTDVDAANLRETFMALKYEVRNKNDLTREEIMELMDSVSKEDHSKRSSFVCVILSHGDEGVIFGTNGPVDLKKLTSFFRGDYCRSLTGKPKLFIIQACRGTELDCGIETDSGTDDDMACQKIPVEADFLYAYSTAPGYYSWRNSRDGSWFIQSLCAMLKLYAHKLEFMHILTRVNRKVATEFESFSLDATFHAKKQIPCIVSMLTKELYFYH
[4]
  binding: binds
[5]
  binding: binds

B2: Apaf-1 (rat lung) (protein, UniProt Q9EPV5 1-1249)
chain: MDAKARNCLLQHKEALEKDIKTSYIMDHMISNGVLTVVEEEKVKSQATQYQRAAALIKMILNKDNYAYISFYNALLHEGYKDLAGLLHSGLPLVSSSSGKDTDGGNTSFVRTVLCEGGVPQRPVIFVTRKKLVSAIQQKLWKLNGEPGWVTIYGMAGCGKSVLAAEAVRDHALLEGCFSGGVHWVSIGKQDKSGLLMKLQNLCTRLGQEESFSQRLPLNIEEAKDRLRVLMLRKHPRSLLILDDVWDPWVLKAFDNQCQILLTTRDKSVTDSVMGPKYVIPVESGLGKEKGLEILSLFVNMKKEDLPVEAHSIIKECKGSPLVVSLVGALLRDFPNRWAYYLRQLQNKQFKRIRKSSSYDYEALDEAMSISVEMLREDIKDYYTDLSILQKDVKVPTKVLCVLWDLETEEVEDILQEFVNKSLLFCNRNGKSFCYYLHDLQVDFLTEKNRSQLQDLHRKMVTQFQRYHQPHTLSPGQEDCMYWYNFLAYHMASAGMHKELCALMFSLDWIKAKTELVGPAHLIHEFVEYRHILDEKDCAVCENFQEFLSLNGHLLGRQPFPNIVQLGLCEPETSEVYQQAKLQAKQEVDTGRLYLEWINKKTIKNLSRLVVRPHTDAVYHACFSQDGQRIASCGADKTLQVFKAETGEKLLDIKAHEDEVLCCAFSSDDSYIATCSVDKKVKIWDSGTGKLVHTYEEHSEQVNCCHFTNKSNHLLLATGSNDSFLKLWDLNQKECRNTMFGHTNSVTHCRFSPDDELLASCSADGTLKLWDVRSANEKKSINVKRFFLSSEDPPEDVEVIVKCCSWSADGDRIIVAAKNKVLLLDIHTSGLLTEIHTGHHSTIQYCDFSPYDHLAVIALSQYCVELWNIDSRVKVADCRGHLSWVHGVMFSPDGSSFLTASDDQTIRVWETRKVCKNSAIVLKQEIDVVFQENEMMVLAVDNIRGLQLIAGKTGQIDYLPEAQVSCCCLSPHLEYVAFGDEEGAIKIIELPNNRVFSSGIGHKKAVRHIQFTADGKTLISSSEDSVIQVWNWQTEEYVFLQAHQETVKDFRLLRDSRLLSWSFDGTVKVWNVITGRIERDFTCHQGTVLSCAISSDATKFSSTSADKTAKIWSFELPSPLHELKGHNSCVRCSAFSLDGILLATGDDNGEIRIWNVSDGQLLHLCAPISIEEGTATHGGWVTDVCFSPDRKMLVSAGGYLKWWNVVTGESSQTFYTNGTNLKKIHVSPDFRTYVTVDNLGILYILQVLE
[5]
  binding: binds

B3: caspase 8 (rat lung) (enzyme, UniProt Q9JHX4 1-482)
chain: MDFHSCLYDIAERLGNEELAALKFLCLDHIPQKKQESINDVLVLFQRLQEEGMLEEDNLSFLKELLFHISRRDLLSRVLKSSPEEMVRELQVLGKAQVSAYRVMLFKLSEDMDKEDLKSFKFLLITEIPKCKLQDNSSLLDIFVEMEKRTILAENNLVTLKSICFRVNRSLLGRIDDYERSSTERRMSTEGGEELPVSVLDEVTIKMQDMWDSPGEQESESLNSDNVYQMKSKPRGYCLIFNNNNFSKAREDIPKLSNMRDRKGTNYDEEALSKTFKELHFEIVSFSDCTASQIHEVLVSYQSKDHKGKDCFICCILSHGDKGIVYGTDGKEASIYELTSYFTGSKCPSLAGKPKIFFIQACQGNNFQKAVPVPDETGLEQEHVLEEDSSSYKNYIPDEADFLLGMATVKNCVSYRDPTRGTWYIQSLCQSLRERCPRGEDILSILTGVNYDVSNKDNPRNMGKQMPQPIFTLRKKLFFPPN
[6]
  binding: binds
[5]
  binding: binds
